# Results reported in PubChem BioAssay AID200 (DTP/NCI, 2004).
# The list shows only some results of the screen, not a fair sample: it is rich in T/C values a quarter to a half above the control, in often repeated tests (any T/C) and in doses without a T/C. Further doses and runs are listed elsewhere. T/C is the treated group as % of the vehicle group. Some doses have a count of surviving animals in place of a T/C: the source files T/C as zero there, which appears to mark a toxic dose or a test without result, not a measured value. Some survivor counts are full or nearly so, which does not show that the dose was tolerated: survival well below the control is almost never listed, so the zero probably covers shortened survival too. Survivors were counted at the toxicity check, usually on the fifth day, unless a day is given; later deaths do not show. Schedules are NCI's codes, taken here to give the interval after Q, in days (D) or hours (H), and the number of doses after X. Some doses were run more than once; the values are given in rising order. Where survival is the endpoint, this PubChem deposit counts one and a half times the control or more as active, and values a quarter to a half above the control carry no call in these data; other NCI protocols may use other cut-offs. Where a SMILES comes first, the peptide text is derived from it.
# System: B6C3F1 mice, B16 melanoma ip, median survival T/C
# Experiment: NCI In Vivo Anticancer Drug Screen. Data for tumor model B16 Melanoma (intraperitoneal) in B6C3F1 mice
# Conditions: T/C endpoint: median survival time, higher T/C = longer survival
# How it was run: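 Antitumor effect was judged in mice with transplanted tumors by dividing the treated group's survival measure by that of vehicle controls.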
# [1] = dose: 12.5 mg/kg/injection, schedule: Q01DX009 (ip), vehicle: distilled water + Tween-80
# [2] = dose: 25.0 mg/kg/injection, schedule: Q01DX009 (ip), vehicle: distilled water + Tween-80
# [3] = dose: 200.0 mg/kg/injection, schedule: Q01DX009 (ip), vehicle: saline with Tween-80
# [4] = dose: 200.0 mg/kg/injection, schedule: Q01DX009 (ip), vehicle: saline
# [5] = dose: 400.0 mg/kg/injection, schedule: Q01DX009 (ip), vehicle: saline with Tween-80
# [6] = dose: 25.0 mg/kg/injection, schedule: Q01DX009 (ip), vehicle: Klucel (hydroxypropylcellulose) (HPC)
# [7] = dose: 100.0 mg/kg/injection, schedule: Q01DX009 (ip), vehicle: Klucel (hydroxypropylcellulose) (HPC)
# [8] = dose: 400.0 mg/kg/injection, schedule: Q01DX009 (ip), vehicle: Klucel (hydroxypropylcellulose) (HPC)
# [9] = dose: 100.0 mg/kg/injection, schedule: Q01DX009 (ip), vehicle: saline with Tween-80
# [10] = dose: 100.0 mg/kg/injection, schedule: Q01DX009 (ip), vehicle: saline
# [11] = dose: 50.0 mg/kg/injection, schedule: Q01DX009 (ip), vehicle: Klucel (hydroxypropylcellulose) (HPC)
# [12] = dose: 6.0 mg/kg/injection, schedule: Q01DX009 (ip), vehicle: saline
structure (smiles),measurement,setting,value
CC1(CO)C(O)CCC2(C)C1CCC1CC3CC12CCC3(O)CO (centres undefined),T/C,"dose: 10.0 mg/kg/injection, schedule: Q03HX027 (ip), vehicle: saline with Tween-80",143 % of control
same,T/C,[1],139 % of control
same,T/C,"dose: 20.0 mg/kg/injection, schedule: Q03HX027 (ip), vehicle: saline with Tween-80",135 and 147 % of control
same,T/C,[2],140 % of control
same,T/C,"dose: 25.0 mg/kg/injection, schedule: Q01DX009 (ip), vehicle: saline with Tween-80",146 % of control
same,T/C,"dose: 30.0 mg/kg/injection, schedule: Q01DX005 (ip), vehicle: Klucel (hydroxypropylcellulose) (HPC)",135 % of control
same,T/C,"dose: 50.0 mg/kg/injection, schedule: Q01DX009 (ip), vehicle: saline with Tween-80",133 and 147 % of control
same,T/C,"dose: 60.0 mg/kg/injection, schedule: Q01DX005 (ip), vehicle: Klucel (hydroxypropylcellulose) (HPC)",141 % of control
same,survivor count,"dose: 80.0 mg/kg/injection, schedule: Q03HX027 (ip), vehicle: saline with Tween-80",10 of 10
same,survivor count,"dose: 160.0 mg/kg/injection, schedule: Q03HX027 (ip), vehicle: saline with Tween-80",6 of 10 and 10 of 10
same,survivor count,[3],10 of 10
same,T/C,[4],149 % of control
same,survivor count,"dose: 240.0 mg/kg/injection, schedule: Q01DX005 (iv), vehicle: Klucel (hydroxypropylcellulose) (HPC)",0 of 10
same,survivor count,[5],8 of 10
CS(=O)(=O)OCCN(CCOS(C)(=O)=O)c1ccc(C=Nc2ccc(-c3csc(COc4ccccc4)n3)cc2)cc1,T/C,[6],128 % of control
same,T/C,[7],139 % of control
same,survivor count,"dose: 200.0 mg/kg/injection, schedule: Q01DX009 (ip), vehicle: Klucel (hydroxypropylcellulose) (HPC)",10 of 10
same,survivor count,[8],10 of 10
CCN(CC)Cc1cc2[nH]c3c4ccc(Cl)cc4ncc3c2cc1OC,survivor count,[9],1 of 10 and 4 of 10
COC(=O)C(Cc1ccc(O)cc1)NC(=O)C(Cc1ccccc1)NC(C)=O (stereo not drawn) (Ac-Phe-Tyr-OMe; configuration not given here),survivor count,[8],8 of 8
c1ccc2c3c(ccc2c1)Sc1ccc2ccccc2c1N3,T/C,[10],128 % of control
same,T/C,[4],125 % of control
same,T/C,"dose: 400.0 mg/kg/injection, schedule: Q01DX009 (ip), vehicle: saline",147 % of control
CN(C)CC(=O)c1ccc(O)c(O)c1,survivor count,[10],6 of 10
O=c1s[se]c2ccccc12,survivor count,[11],0 of 10
CC(C)(C)OC(=O)NC(CCCCNC(=O)OCc1ccccc1)C(=O)O (centres undefined),survivor count,"dose: 100.0 mg/kg/injection, schedule: Q01DX009 (ip), vehicle: distilled water + Tween-80 + alcohol",10 of 10
COC12C(COC(=O)NCCO)C3=C(C(=O)C(C)=C(N)C3=O)N1CC1NC12 (centres undefined),T/C,"dose: 6.25 mg/kg/injection, schedule: Q01DX009 (ip), vehicle: Klucel (hydroxypropylcellulose) (HPC)",147 % of control
same,survivor count,[11],10 of 10
OCc1c(CO)c(-c2ccc(Cl)cc2)n2c1CCC2,survivor count,"dose: 400.0 mg/kg/injection, schedule: Q01DX009 (ip), vehicle: distilled water + Tween-80",10 of 10
O=NN(CCF)C(=O)NC1C(O)CCCC1O (centres undefined),survivor count,"dose: 120.0 mg/kg/injection, schedule: Q01DX001 (ip), vehicle: saline",5 of 10 on day 6
[N-]=[N+]=CC(=O)CCC(=O)C=[N+]=[N-],survivor count,"dose: 3.12 mg/kg/injection, schedule: Q01DX009 (ip), vehicle: DMSO",7 of 10
same,survivor count,"dose: 6.25 mg/kg/injection, schedule: Q01DX009 (ip), vehicle: DMSO",9 of 10
same,survivor count,"dose: 12.5 mg/kg/injection, schedule: Q01DX009 (ip), vehicle: DMSO",7 of 10
same,survivor count,"dose: 25.0 mg/kg/injection, schedule: Q01DX009 (ip), vehicle: DMSO",1 of 10
same,survivor count,"dose: 50.0 mg/kg/injection, schedule: Q01DX009 (ip), vehicle: DMSO",1 of 10
[N-]=[N+]=C1N=CN=C1c1ncn[nH]1,T/C,[6],146 % of control
same,T/C,[11],134 % of control
same,survivor count,[7],6 of 10
CCC1OC(OC)C=CC1=O (centres undefined),survivor count,[10],0 of 10
same,survivor count,[4],0 of 10
CS(=O)(=O)Nc1ccc(C(=O)CCN2CCCCCC2)cc1,survivor count,"dose: 400.0 mg/kg/injection, schedule: Q01DX009 (ip), vehicle: suspension in saline",3 of 10
N#Cc1ccc(NC(=O)Nc2nccs2)cc1,T/C,[1],126 % of control
same,T/C,[2],141 % of control
same,T/C,"dose: 50.0 mg/kg/injection, schedule: Q01DX009 (ip), vehicle: distilled water + Tween-80",132 % of control
same,survivor count,"dose: 200.0 mg/kg/injection, schedule: Q01DX009 (ip), vehicle: distilled water + Tween-80",0 of 10
CN=S(=O)(OCCCCCOS(=O)(=NC)c1ccc(C)cc1)c1ccc(C)cc1 (centres undefined),survivor count,[3],1 of 10
same,survivor count,[5],1 of 10
C=CCSc1ncnc2c1ncn2C1OC(CO)C(O)C1O (centres undefined),survivor count,"dose: 300.0 mg/kg/injection, schedule: Q01DX009 (ip), vehicle: saline with Tween-80",10 of 10
C=Cc1cnc([N+](=O)[O-])n1C,survivor count,[8],0 of 10
O=C(O)C1CC1.[Ag],survivor count,"dose: 12.5 mg/kg/injection, schedule: Q01DX009 (ip), vehicle: water",10 of 10
same,survivor count,"dose: 25.0 mg/kg/injection, schedule: Q01DX009 (ip), vehicle: water",0 of 10
CCc1cccc(CC)c1-n1c(C)ccc1-c1ccccc1,survivor count,[3],10 of 10
same,survivor count,[5],10 of 10
O=C1N[C@H]2[C@H](O)[C@H](O)[C@@H](O)[C@H](O)[C@@H]2c2cc3c(c(O)c21)OCO3,T/C,"dose: 3.12 mg/kg/injection, schedule: Q01DX009 (ip), vehicle: saline + alcohol",129 % of control
same,survivor count,"dose: 12.0 mg/kg/injection, schedule: Q01DX009 (ip), vehicle: saline + alcohol",6 of 10
same,survivor count,"dose: 12.5 mg/kg/injection, schedule: Q01DX009 (ip), vehicle: saline + alcohol",1 of 10
same,survivor count,"dose: 25.0 mg/kg/injection, schedule: Q01DX009 (ip), vehicle: saline + alcohol",0 of 10
COC1=C2C[C@@H](C)C[C@@H](OC)[C@@H](O)[C@H](C)/C=C(\C)[C@@H](OC(N)=O)[C@H](OC)/C=C\C=C(/C)C(=O)NC(=CC1=O)C2=O,survivor count,"dose: 0.25 mg/kg/injection, schedule: Q01DX009 (ip), vehicle: saline with Tween-80",10 of 10
same,T/C,"dose: 1.0 mg/kg/injection, schedule: Q01DX009 (ip), vehicle: saline with Tween-80",125 % of control
same,T/C,"dose: 2.0 mg/kg/injection, schedule: Q01DX009 (ip), vehicle: saline with Tween-80",129 % of control
same,survivor count,"dose: 4.0 mg/kg/injection, schedule: Q01DX009 (ip), vehicle: saline with Tween-80",10 of 10
BrCC[Se]c1ccccc1,T/C,"dose: 6.25 mg/kg/injection, schedule: Q01DX009 (ip), vehicle: saline with Tween-80",136 % of control
same,survivor count,[9],7 of 10 and 10 of 10
[Cl][Pt+2][Cl].[NH-]C1CCC1.[NH2-],T/C,"dose: 0.75 mg/kg/injection, schedule: Q01DX009 (ip), vehicle: saline",127 % of control
same,T/C,"dose: 3.0 mg/kg/injection, schedule: Q01DX009 (ip), vehicle: saline",142 % of control
same,T/C,[12],136 % of control
same,survivor count,[12],10 of 10
same,survivor count,"dose: 12.0 mg/kg/injection, schedule: Q01DX009 (ip), vehicle: saline",10 of 10
same,survivor count,"dose: 24.0 mg/kg/injection, schedule: Q01DX009 (ip), vehicle: saline",10 of 10
